Data from doi:10.1101/312165.

Protein sequences, listed by entry. Tags and fused reporters are not part of them. Residues count along the entry.
UniProt Q00604, residues 25-133: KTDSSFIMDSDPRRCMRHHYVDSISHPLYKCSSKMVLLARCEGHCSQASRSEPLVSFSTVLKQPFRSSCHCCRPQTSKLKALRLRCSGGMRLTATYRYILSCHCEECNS

B1: retinoschisin (protein, UniProt O15537 24-224)
chain: STEDEGEDPWYQKACKCDCQGGPNALWSAGATSLDCIPECPYHKPLGFESGEVTPDQITCSNPEQYVGWYSSWTANKARLNSQGFGCAWLSKFQDSSQWLQIDLKEIKVISGILTQGRCDIDEWMTKYSVQYRTDERLNWIYYKDQTGNNRVFYGNSDRTSTVQNLLRPPIISRFIRLIPLGWHVRIAIRMELLECVSKCA

Assays:
[1] = target: T1, retinoschisin (human (endogenous in retina)) (UniProt O15537); experiment: affinity purification with mass spectrometry
T1 sequence: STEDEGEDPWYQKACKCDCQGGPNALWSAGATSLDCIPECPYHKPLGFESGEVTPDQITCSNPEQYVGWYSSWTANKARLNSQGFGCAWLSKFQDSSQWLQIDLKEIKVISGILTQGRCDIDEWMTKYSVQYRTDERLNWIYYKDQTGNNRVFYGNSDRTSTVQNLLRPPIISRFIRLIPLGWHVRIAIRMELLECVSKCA

[2] = target: norrin (human (endogenous in retina)) (UniProt Q00604); experiment: affinity purification with mass spectrometry

Row | Molecule | binding [1] | binding [2]
1 | norrin (from UniProt Q00604 25-133) | no binding | 
2 | B1 |  | no binding

No constants are given. Whether binding was seen depends on the method and setting. Binding seen in cells or lysates may run through a third protein. Here binding means that the protein was enriched with, or labelled near, the bait; the list need not be complete. A no says only that the protein was not detected with the bait. Tags and fused reporters may be left off the sequences shown.
